# Test results taken from PubChem BioAssay AID1625 (Sanford-Burnham Center for Chemical Genomics, 2009).
# Several values for one entry are separate records, joined by “and”; a condition that tells them apart may be missing. Identical values can stand only once. Some of the results follow.
# Experiment: insulin promoter activators in MIN6 cells, imaging, high-content screening, mouse beta cells (AID 1625);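 note: total cells summed across four imaged fields per well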
# Conditions: MIN6 insulin promoter-GFP reporter, measured here: cytotoxicity, nuclei count, at 5 µM
row,SMILES,cell count
1,O=[N+]([O-])c1ccc(Nc2ccc(Oc3ccc([N+](=O)[O-])cc3[N+](=O)[O-])cc2)c([N+](=O)[O-])c1,1230 cells
2,CP(=O)(Nc1ccccc1Br)Oc1ccccc1 (stereo unspecified),1320 cells
3,CP(=S)(Nn1cnnc1)Oc1ccccc1 (stereo unspecified),1210 cells
4,CCOC(=O)Nc1cccc([As](=O)(O)O)c1,1440 cells
5,Cc1cc(SC(NC(=O)c2ccccc2)C(Cl)(Cl)Cl)nc(C(C)C)n1 (stereo unspecified),1330 cells
6,CCOC(=O)Nc1ccc([As](=O)(O)O)c(O)c1,1110 cells
7,CCC(C)N(CC(C)C)C(=S)SC(NC(C)=O)C(Cl)(Cl)Cl (stereo unspecified),1210 cells
8,CP(=O)(Nc1ccccn1)Oc1ccc(Cl)cc1 (stereo unspecified),981 cells
9,CCOP(C)(=S)SCC(=O)NC(C)C(=O)O (stereo unspecified),1290 cells
10,CCOC(=O)c1ccc(NP(C)(=O)Oc2ccc(OC)cc2)cc1 (stereo unspecified),1410 cells
11,CCOC(=O)c1ccc(NC(=O)C(C)(CCl)SC)cc1 (stereo unspecified),1160 cells
12,Cc1cc(C)cc(OP(C)(=O)Nc2ccc(SC(F)(F)F)cc2)c1 (stereo unspecified),1520 cells
13,CP(=O)(NC(=O)Nc1ccccc1)Oc1ccccc1 (stereo unspecified),1040 cells
14,O=C(COc1ccccc1)OC1CN2CCC1CC2 (stereo unspecified),963 cells
15,CCc1ccc(OP(C)(=O)N2CCN(c3ccc([N+](=O)[O-])cc3)CC2)cc1 (stereo unspecified),1060 cells
16,CP(=O)(Oc1ccccc1)OC(c1ccccc1)C(F)(F)F (stereo unspecified),1430 cells
17,COP1(=S)c2c(C)nn(CCC#N)c2N=C(c2ccc(F)cc2)N1C (stereo unspecified),1420 cells
18,CP(=O)(Nc1ccc(SC(F)(F)F)cc1)Oc1ccc(Cl)cc1 (stereo unspecified),1010 cells
19,Cc1cccc(C)c1OP(C)(=O)Nc1ccc(SC(F)(F)F)cc1 (stereo unspecified),1360 cells
20,CC1CCN(C(=O)Oc2c(Cl)cc(Cl)c3cccnc23)CC1,1390 cells
21,CC(C)=N/N=C(\N)N[N+](=O)[O-],1460 cells
22,CN(C)C(=O)c1c([N+](=O)[O-])cc([N+](=O)[O-])cc1[N+](=O)[O-],655 cells
23,CP(=O)(Nc1ccc(Cl)cc1)Oc1ccc(F)cc1 (stereo unspecified),1580 cells
24,CCN(/C(=N/P(=O)(N1CCOCC1)N1CCOCC1)N1CCOCC1)c1ccc(OC)cc1,1230 cells
25,C[N+]1=C2C=CC=CC=C2SC12C([N+](=O)[O-])=CC([N+](=O)[O-])=C[C-]2[N+](=O)[O-] (stereo unspecified),958 cells
26,COc1ccccc1OP(C)(=O)Nc1ccccc1Br (stereo unspecified),1140 cells

row,SMILES,cell count
1,Nc1ccc([As](=O)(O)c2ccc(N)cc2)cc1,1380 cells
2,CCc1ccc(OP(C)(=O)Nc2cccnc2)cc1 (stereo unspecified),1250 cells
3,CCc1nc2c(n1)c1c(non1O)c1c2no[n+]1[O-],1350 cells
4,CP(=O)(Oc1ccccc1)N1CCOC1=O (stereo unspecified),1040 cells
5,Cc1ccc(NP(=O)(Oc2ccccc2)Oc2ccccc2)nc1,1420 cells
6,O=C(OCCCN1CCCC1)C(O)(c1ccccc1)C1CCCCC1 (stereo unspecified),1070 cells
7,COc1ccccc1OP(C)(=O)Nc1c(C)n(C)n(-c2ccccc2)c1=O (stereo unspecified),1260 cells
8,COc1ccc(OP(C)(=O)Nc2ccc(Br)cc2)cc1 (stereo unspecified),1370 cells
9,COc1ccc(C2=NCC(CBr)S2)cc1 (stereo unspecified),1130 cells
10,CCN(CC)CC(O)COC(=O)C(O)(c1ccccc1)C1CCCCC1 (stereo unspecified),1190 cells
11,O=C(O)CNc1ccc([As](=O)(O)O)cc1,1340 cells
12,O=[N+]([O-])c1cccc(NC2=NCC(CBr)S2)c1 (stereo unspecified),1070 cells
13,O=[N+]([O-])c1ncn(CCn2ncnc2[N+](=O)[O-])n1,1140 cells
14,CC(C)(C)C(=O)NC(Sc1ccncn1)C(Cl)(Cl)Cl (stereo unspecified),1010 cells
15,CP(=O)(OC12CC3CC(CC(C3)C1)C2)OC12CC3CC(CC(C3)C1)C2,951 cells
16,O=C(Nc1cc([As](=O)(O)O)ccc1O)c1ccccc1,1380 cells
17,CP(=O)(Nc1ccc(Cl)cc1Cl)Oc1ccccc1 (stereo unspecified),1260 cells
18,CP(=O)(OCCOc1ccccc1)OCCOc1ccccc1,1260 cells
19,Nc1cccc2ccc([As](=O)(O)O)cc12,1380 cells
20,CCN(N=Nc1nonc1N)c1nonc1N,1440 cells
21,Cc1nc2ccc3ccccc3c2o1.O=[N+]([O-])c1cc([N+](=O)[O-])c(O)c([N+](=O)[O-])c1,1330 cells
22,COc1ccc(OP(C)(=O)Nc2ccccc2Br)cc1 (stereo unspecified),1540 cells
23,COc1ccccc1OP(C)(=O)Nc1ccc(C)c(C)c1 (stereo unspecified),1130 cells
24,Cc1ccc(NP(=O)(Oc2ccccc2F)Oc2ccccc2F)nc1,978 cells
25,Cc1cc(SC(NC(=O)c2ccc(F)cc2)C(Cl)(Cl)Cl)ncn1 (stereo unspecified),1480 cells
26,CCOP(=O)(Nc1ccccc1)OCC,716 cells and 1360 cells

row,SMILES,cell count
1,O=P(Nc1nc2ccc(Cl)cc2s1)(c1ccccc1)c1ccccc1,1120 cells
2,Cc1cc(C)cc(OP(C)(=O)Nc2cccc(C(F)(F)F)c2)c1 (stereo unspecified),1560 cells
3,CC(=O)Nc1ccc([As](=O)(O)O)cc1,1420 cells
4,O=C(O)c1ccccc1[As](=O)(O)O,1310 cells
5,CCc1ccc(OP(C)(=O)O)cc1,1590 cells
6,COc1ccccc1OP(C)(=O)Nc1ccc(C)cc1C (stereo unspecified),1490 cells
7,CP(=O)(Nc1ccccn1)Oc1ccccc1 (stereo unspecified),1240 cells
8,Cc1c2non([O-])c-2c(C)[n+](=O)[n+]1[O-],1250 cells
9,Oc1ccccc1CNc1ccccn1,932 cells
10,Cc1c(NP(C)(=O)Oc2ccc(C(C)C)cc2)c(=O)n(-c2ccccc2)n1C (stereo unspecified),1350 cells
11,O=[N+]([O-])c1cc([N+](=O)[O-])c(Nc2ccccn2)c([N+](=O)[O-])c1,1230 cells
12,CN(C)CCOC(=O)C(O)(c1ccccc1)C1CCCC1 (stereo unspecified),1030 cells
13,Clc1ccc(Cl)c(NC2=NCC(CBr)S2)c1 (stereo unspecified),1310 cells
14,Cc1ccc(OP(=O)(Nc2nccs2)Oc2ccc(C)cc2)cc1,1070 cells
15,COc1ccccc1OP(=O)(Nc1ccc(C)cn1)Oc1ccccc1OC,1680 cells
16,COc1ccc(OP(C)(=O)Nc2ccccn2)cc1 (stereo unspecified),827 cells
17,Cc1ccc(N/C(=N/P(=O)(N2CCOCC2)N2CCOCC2)N2CCOCC2)cc1,1640 cells
18,COc1ccccc1OP(C)(=O)Nc1ccc(Br)cc1 (stereo unspecified),953 cells
19,NC(=O)c1cc([N+](=O)[O-])cc([N+](=O)[O-])c1N,1170 cells
20,CC(=O)Nc1ccc(Oc2c([N+](=O)[O-])cc([N+](=O)[O-])cc2[N+](=O)[O-])cc1,1270 cells
21,CC(=O)Nc1ccc([As](=O)(O)O)c(O)c1,1460 cells
22,C[C@H]1OP(=O)(Oc2ccccc2)C[C@@H]2O[C@@H]21 (stereo partly specified),1030 cells
23,C[C@@H]1C=CCP(=O)(Oc2ccccc2)O1 (stereo partly specified),876 cells
24,O=C(OCCN1CCN(CCOCc2ccccc2)CC1)C(O)(c1ccccc1)c1ccccc1,1470 cells
